± gives the standard deviation of the averaged measurements. Most entries show no effect beyond the scatter of the controls.
Experiments:
Assay in all cases: level (log10 ratio to DMSO vehicle control); higher = higher biomarker level / cell amount than vehicle control
[1] = compound: O=C(O)C(F)(F)C(F)(F)C(F)(F)C(F)(F)C(F)(F)F [Perfluorohexanoic acid] (in DMSO)
Description: (§1)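 BioMAP Diversity Plus panel of 12 human primary cell co-culture systems (3C, 4H, LPS, SAg, BT, BF4T, BE3C, CASM3C, HDF3CGF, KF3CT, MyoF, Mphg). Compounds were added 1 h before stimulation and left for 24 h (MyoF 48 h; BT 72 h for soluble read-outs or 6 d for IgG). Biomarkers were read by ELISA, cytotoxicity by SRB, PBMC viability and proliferation by Alamar Blue. Each well value was divided by the mean of 8 DMSO control wells on the same plate and log10 transformed; duplicate blinded samples were tested at 4 concentrations.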

[2] = compound: OCC(F)(F)C(F)(F)C(F)(F)C(F)(F)C(F)(F)C(F)(F)F [6:1 Fluorotelomer alcohol] (in DMSO); conditions: 2200 nM
Description: as §1

[3] = compound: O=C(O)C(F)(F)C(F)(F)C(F)(F)OC(F)(C(F)(F)F)C(F)(F)F [Perfluoro-4-isopropoxybutanoic acid] (in DMSO); conditions: 2200 nM
Description: as §1

[4] = compound: OCC(F)(F)OC(F)(F)C(F)(F)OC(F)(F)CO [1H,1H,8H,8H-Perfluoro-3,6-dioxaoctane-1,8-diol] (in DMSO); conditions: 2200 nM
Description: as §1

[5] = compound: C=C(C)C(=O)OCCC(F)(F)C(F)(F)C(F)(F)C(F)(F)C(F)(F)C(F)(F)F [6:2 Fluorotelomer methacrylate] (in DMSO); conditions: 2200 nM
Description: as §1

[6] = compound: FC(F)(F)C(F)(F)C(F)(F)C(F)(F)CCI [1H,1H,2H,2H-Perfluorohexyl iodide] (in DMSO); conditions: 2200 nM
Description: as §1

[7] = compound: O=C(O)C(F)(OC(F)(F)C(F)(F)C(F)(F)F)C(F)(F)F [Ammonium perfluoro-2-methyl-3-oxahexanoate] (in Water)
Description: as §1

[8] = compound: OCCCC(F)(F)C(F)(F)C(F)(F)C(F)(F)C(F)(F)C(F)(F)C(F)(F)C(F)(F)F [3-(Perfluorooctyl)propanol] (in DMSO); conditions: 2200 nM
Description: as §1

[9] = compound: FC(F)(F)COC(OCC(F)(F)F)OCC(F)(F)F [tris(Trifluoroethoxy)methane] (in DMSO); conditions: 2200 nM
Description: as §1

[10] = compound: CNS(=O)(=O)C(F)(F)C(F)(F)C(F)(F)C(F)(F)C(F)(F)C(F)(F)C(F)(F)C(F)(F)F [N-Methylperfluorooctanesulfonamide] (in DMSO); conditions: 2200 nM
Description: as §1

[11] = compound: FC(F)(F)C(F)(F)CNCC(F)(F)C(F)(F)F [Bis(1H,1H-perfluoropropyl)amine] (in DMSO); conditions: 2200 nM
Description: as §1

[12] = compound: OCC(F)(F)C(F)(F)C(F)(F)C(F)F [1H,1H,5H-Perfluoropentanol] (in DMSO); conditions: 2200 nM
Description: as §1

[13] = compound: O=C(O)C(F)(OC(F)(F)C(F)(OC(F)(F)C(F)(OC(F)(F)C(F)(F)C(F)(F)F)C(F)(F)F)C(F)(F)F)C(F)(F)F [Perfluoro-(2,5,8-trimethyl-3,6,9-trioxadodecanoic)acid] (in DMSO); conditions: 370 nM
Description: as §1

[14] = compound: O=C(O)C(F)(F)C(F)(F)C(F)(F)C(=O)O [Hexafluoroglutaric acid] (in DMSO)
Description: as §1

[15] = compound: O=S(=O)(O)C(F)(F)C(F)(F)C(F)(F)C(F)(F)F [Perfluorobutanesulfonic acid] (in DMSO)
Description: as §1

[16] = compound: OCC(F)(F)C(F)(F)C(F)(F)C(F)(F)C(F)(F)C(F)(F)CO [1H,1H,8H,8H-Perfluorooctane-1,8-diol] (in DMSO); conditions: 2200 nM
Description: as §1

[17] = compound: O=C(O)CCC(F)(F)C(F)(F)C(F)(F)F [3:3 Fluorotelomer carboxylic acid] (in DMSO); conditions: 2200 nM
Description: as §1

Test System	level (log10) ([1]; 2200 nM)	level (log10) ([1]; 6700 nM)	level (log10) ([1]; 20000 nM)	level (log10) ([1]; 60000 nM)	level (log10) [2]	level (log10) [3]	level (log10) [4]	level (log10) [5]	level (log10) [6]	level (log10) ([7]; 2200 nM)	level (log10) ([7]; 6700 nM)	level (log10) ([7]; 20000 nM)	level (log10) ([7]; 60000 nM)	level (log10) [8]	level (log10) [9]	level (log10) [10]	level (log10) [11]	level (log10) [12]	level (log10) [13]	level (log10) ([14]; 2200 nM)	level (log10) ([14]; 6700 nM)	level (log10) ([14]; 20000 nM)	level (log10) ([14]; 60000 nM)	level (log10) ([15]; 2200 nM)	level (log10) ([15]; 6700 nM)	level (log10) ([15]; 20000 nM)	level (log10) ([15]; 60000 nM)	level (log10) [16]	level (log10) [17]
BF4T:CD90	0.0015 ± 0.0092	-0.0045 ± 0.011	-0.0005 ± 0.011	-0.007 ± 0.011	0.0145 ± 0.016	0.001 ± 0.0085	0.0015 ± 0.015	-0.007 ± 0.0028	-0.0035 ± 0.032	0.0075 ± 0.0078	-0.0065 ± 0.011	-0.015 ± 0.011	-0.007 ± 0.024	-0.012 ± 0.041	0.008 ± 0.017	0.007 ± 0.018	-0.001 ± 0.025	-0.016 ± 0.017	0.0005 ± 0.0021	0.013 ± 0.0085	0.0025 ± 0.0092	0.009 ± 0.0042	0.0175 ± 0.005	-0.0025 ± 0.0092	-0.007 ± 0.0042	-0.008 ± 0.021	-0.015 ± 0.011	-0.019 ± 0.033	0.011 ± 0.0028
CASM3C:IL-6	0.005	-0.0075 ± 0.042	-0.0155 ± 0.0021	-0.0125 ± 0.053	0.0145 ± 0.047	0.0555 ± 0.039	0.0185 ± 0.049	-0.0045 ± 0.063	0.0495 ± 0.026	0.0405 ± 0.036	0.0075 ± 0.005	-0.052 ± 0.042	-0.0375 ± 0.047	0.007 ± 0.055	0.002 ± 0.028	0.002 ± 0.096	-0.007 ± 0.076	-0.002 ± 0.014	-0.002 ± 0.047	0.025 ± 0.033	-0.0175 ± 0.0035	-0.015 ± 0.021	0.022 ± 0.082	0.0105 ± 0.00071	-0.032 ± 0.028	-0.0375 ± 0.0021	-0.015 ± 0.0057	0.0185 ± 0.036	0.026 ± 0.067
BT:sTNF-alpha	0.002 ± 0.048	-0.036 ± 0.05	-0.023 ± 0.081	-0.01 ± 0.11	0.037 ± 0.15	0.0255 ± 0.2	-0.011 ± 0.018	-0.0205 ± 0.042	0 ± 0.095	-0.0505 ± 0.13	-0.035 ± 0.037	0.013 ± 0.034	0.0045 ± 0.093	0.086 ± 0.15	0.083 ± 0.017	0.008 ± 0.12	0.0735 ± 0.018	0.0855 ± 0.12	-0.004 ± 0.064	0.0265 ± 0.018	0.026 ± 0.13	0.0415 ± 0.039	0.116 ± 0.039	-0.0515 ± 0.033	0.0295 ± 0.011	0.0515 ± 0.071	0.015 ± 0.011	0.012 ± 0.19	0.126 ± 0.12
SAg:CD69	-0.0155 ± 0.0021	-0.0065 ± 0.00071	-0.0115 ± 0.021	-0.0125 ± 0.0092	-0.013 ± 0.0014	-0.0025 ± 0.016	-0.0035 ± 0.013	0.0015 ± 0.0035	-0.0095 ± 0.0092	-0.003 ± 0.0099	-0.046 ± 0.0071	-0.0265 ± 0.019	-0.0205 ± 0.005	-0.0195 ± 0.0064	0.048 ± 0.016	0.001 ± 0.014	0.004 ± 0.0057	-0.0045 ± 0.015	-0.0055 ± 0.0035	0.0005 ± 0.0064	-0.0125 ± 0.0064	-0.016 ± 0.013	0.005 ± 0.0042	0.0045 ± 0.025	-0.008 ± 0.0028	-0.013 ± 0.017	-0.043 ± 0.037	0.0135 ± 0.022	0.0115 ± 0.029
CASM3C:M-CSF	0.022 ± 0.037	-0.0185 ± 0.019	-0.0125 ± 0.013	0.0105 ± 0.0092	0.002 ± 0.04	0.055 ± 0.0028	0.0145 ± 0.067	-0.0075 ± 0.044	0.0325 ± 0.036	-0.0635 ± 0.076	-0.049 ± 0.016	-0.0405 ± 0.0092	-0.0405 ± 0.022	0.0115 ± 0.054	0.0075 ± 0.06	0.022 ± 0.051	0.009 ± 0.023	0.031 ± 0.011	-0.0155 ± 0.013	0.01 ± 0.059	-0.0135 ± 0.022	-0.0185 ± 0.033	0.018 ± 0.018	-0.0065 ± 0.022	-0.007 ± 0.031	-0.002	0.0025 ± 0.011	0.022 ± 0.038	0.033 ± 0.09
lMphg:SRB-Mphg	0.006 ± 0.017	-0.0005 ± 0.011	0.003 ± 0.0071	0.0115 ± 0.0035	0.015 ± 0.018	0.004 ± 0.0099	0.044 ± 0.035	0.0175 ± 0.039	0.011 ± 0.017	0 ± 0.0099	-0.0535 ± 0.036	-0.046 ± 0.041	-0.054 ± 0.041	0.0465 ± 0.0021	-0.007 ± 0.028	0.015 ± 0.0042	-0.019 ± 0.017	0.0175 ± 0.054	0.0215 ± 0.013	-0.0025 ± 0.019	-0.0075 ± 0.019	-0.0055 ± 0.005	0.0075 ± 0.022	0.003 ± 0.013	0.01 ± 0.018	0.0045 ± 0.015	-0.0005 ± 0.012	-0.0155 ± 0.043	-0.009 ± 0.17
KF3CT:MMP-9	-0.01 ± 0.018	-0.009 ± 0.014	-0.0055 ± 0.0035	0.017 ± 0.016	-0.0225 ± 0.015	0.003 ± 0.0099	0.0215 ± 0.0092	-0.0145 ± 0.036	-0.002 ± 0.0085	0.0145 ± 0.023	-0.008 ± 0.011	0.0415 ± 0.026	0.0695 ± 0.0035	-0.008 ± 0.0028	0.0105 ± 0.00071	0.0195 ± 0.015	-0.0245 ± 0.013	-0.0005 ± 0.013	-0.0105 ± 0.011	0.006 ± 0.0099	-0.001 ± 0.023	0.015 ± 0.021	0.005 ± 0.0099	-0.013 ± 0.027	-0.0115 ± 0.0021	-0.008 ± 0.013	-0.0145 ± 0.005	0.019 ± 0.02	0.0105 ± 0.0078
CASM3C:LDLR	0.0105 ± 0.022	0.001 ± 0.0028	-0.0065 ± 0.029	-0.0025 ± 0.039	0.0015 ± 0.035	0.039 ± 0.0071	0.029 ± 0.024	-0.041 ± 0.058	0.0295 ± 0.0092	-0.0275 ± 0.013	-0.061 ± 0.057	-0.032 ± 0.04	-0.0545 ± 0.021	0.037 ± 0.028	0.0095 ± 0.0035	0.034 ± 0.064	-0.006 ± 0.017	-0.115 ± 0.049	0.016 ± 0.028	-0.0035 ± 0.00071	-0.009 ± 0.0099	-0.0175 ± 0.026	-0.015 ± 0.014	-0.026 ± 0.014	-0.0305 ± 0.0035	-0.0255 ± 0.025	-0.0345 ± 0.053	0.0325 ± 0.036	0.008 ± 0.025

Reference: the supplement of paper PMC10331698
